Structures can show the parent of a compound that is named as a salt. Some of the results follow. The calls rarely recur for the same compound in another form.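 Kinases were expressed as nanoluciferase fusions in K562 cells and luminescence was read every 4 h between 2 and 18 h as percent of control, DMSO set to 100% and a positive control to 0%. A time point counts as decreased when the signal drops significantly (2 sigma). The hit call is the authors' own, does not follow from the count of time points alone, and its rule is not shown.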
Biological target: BRAF (UniProt P15056)
Assay: kinase-Nluc reporter destabilization hit call (1 = scored as downregulated) (binary); higher = compound decreases kinase abundance
Settings: K562; 2-18 h

Amino acid sequences for entries named in this document (tags omitted).
UniProt P15056, whole entry, looked up: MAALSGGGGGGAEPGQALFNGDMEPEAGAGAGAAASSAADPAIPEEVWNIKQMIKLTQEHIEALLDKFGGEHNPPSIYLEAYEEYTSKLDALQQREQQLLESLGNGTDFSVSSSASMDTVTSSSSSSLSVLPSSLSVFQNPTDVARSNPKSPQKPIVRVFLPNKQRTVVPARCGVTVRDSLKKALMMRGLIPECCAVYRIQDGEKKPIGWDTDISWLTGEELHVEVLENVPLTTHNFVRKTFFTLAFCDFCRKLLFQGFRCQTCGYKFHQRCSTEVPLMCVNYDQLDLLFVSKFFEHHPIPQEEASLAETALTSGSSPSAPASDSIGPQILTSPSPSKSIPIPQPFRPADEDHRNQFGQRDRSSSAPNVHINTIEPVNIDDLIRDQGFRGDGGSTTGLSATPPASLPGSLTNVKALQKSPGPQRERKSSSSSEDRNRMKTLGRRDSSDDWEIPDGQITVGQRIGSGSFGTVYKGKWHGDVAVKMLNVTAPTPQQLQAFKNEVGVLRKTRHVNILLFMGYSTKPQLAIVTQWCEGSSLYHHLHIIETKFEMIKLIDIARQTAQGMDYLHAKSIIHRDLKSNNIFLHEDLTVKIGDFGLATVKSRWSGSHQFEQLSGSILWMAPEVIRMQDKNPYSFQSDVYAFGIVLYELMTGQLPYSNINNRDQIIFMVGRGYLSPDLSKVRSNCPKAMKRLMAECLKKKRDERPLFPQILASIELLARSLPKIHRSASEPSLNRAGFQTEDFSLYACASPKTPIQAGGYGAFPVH

kinase-Nluc reporter destabilization hit call, inactive:
CN(C)CCN(Cc1ccc(Cl)cc1)c1ccccn1 [Chloropyramine hydrochloride] (10 µM) 0, O=C(Nc1ccc(F)cc1F)[C@H](NC(=S)Nc1cc(C(F)(F)F)cc(C(F)(F)F)c1)c1ccccc1 (2.5 µM) 0, Cc1ccc(Nc2cc(-c3cccc(N4C(=O)c5ccccc5C4=O)c3)ncn2)cc1NS(C)(=O)=O (10 µM) 0, CC(C)(C)c1ccc(S(=O)(=O)Nc2ccc(-n3ccnc3)cc2)cc1 (10 µM) 0, CCc1cc(O)c(F)cc1-c1ccc2c(-c3nc4c([nH]3)CN(C3CCN(C)CC3)CC4)n[nH]c2c1 [JAK-IN-5 (hydrochloride)] (2 µM) 0, CC1=C2C(=O)O[C@@H](c3ccoc3)[C@]2(C)CCC1 [Fraxinellone] (10 µM) 0, COc1cc(C(N)=O)nc(-c2cccc(C#C[C@]3(O)CCN(C)C3=O)c2)c1 (10 µM) 0, COc1ncc(-c2nc(N3CCOCC3)nc3c(CN4CCC(C(C)(C)O)CC4)cc(F)cc23)cc1NS(C)(=O)=O [Linperlisib] (10 µM) 0, Fc1ccc(-c2nc(-c3ccccc3F)[nH]c2-c2ccncc2)cc1 (2.5 µM) 0, CC(C)=CC[C@H](O)C1=CC(=O)c2c(O)ccc(O)c2C1=O [(-)-Alkannin] (2.5 µM) 0, CC(C)c1cnc(-c2cc(Cl)ccc2F)cc1Nc1ccncc1C(=O)NC(CO)CO (2.5 µM) 0, Cn1cnc(-c2cc3nccc(Oc4ccc(NC(=S)NC(=O)Cc5ccccc5)cc4F)c3s2)c1 [MGCD-265 analog] (10 µM) 0, COC1(c2sc3c(N4CCOCC4)nc(-c4cnc(N)nc4)nc3c2C)COC1 (2.5 µM) 0, Cc1cc(NC(=O)c2cccc(NC(=O)/C=C/CN(C)C)c2)ccc1Nc1nccc(-c2cccnc2)n1 (10 µM) 0, O=C(/C=C/c1ccc(O)c(O)c1)OC1CC(OC(=O)/C=C/c2ccc(O)c(O)c2)(C(=O)O)CC(O)C1O (stereo not given) [1,3-Dicaffeoylquinic acid] (10 µM) 0, COc1ccc2c(c1O)OC(C)(C)c1c-2ccc2c1C(=O)N(c1ccc(C(=O)c3ccccc3)cc1)C2=O [Ampkinone] (10 µM) 0, CNC(=O)Nc1ccc(-c2cc(-c3ccnc(Nc4ccc(C)c(S(=O)(=O)N(C)C)c4)n3)ccn2)cc1 [hSMG-1 inhibitor 11e] (2.5 µM) 0

Tested on: BRAF_V600E
Assay: as above
Settings: K562; 2-18 h

kinase-Nluc reporter destabilization hit call, inactive:
O=c1cc(O)cc(/C=C/c2ccc(O)c(O)c2)o1 [Hispidin] (10 µM) 0, CC1CN(C(=O)Nc2ccc(Cl)c(Cl)c2)C(=Nc2ccc(F)cc2)S1 (stereo not given) (10 µM) 0, COc1cc2c[n+](C)c3c4cc5c(cc4ccc3c2cc1OC)OCO5 [Nitidine (chloride)] (2 µM) 0, Cc1c(CN2CCN(S(C)(=O)=O)CC2)sc2c(N3CCOCC3)nc(-c3cnc(N)nc3)nc12 (2.5 µM) 0, Cc1cc([C@H](C)Nc2ccccc2)c2oc(N3CCOCC3)cc(=O)c2c1 (10 µM) 0, O=C(CNC(=O)c1ccc(-c2ccccc2)cc1)NC1CCCc2ccccc21 (stereo not given) [TAO Kinase inhibitor 1] (10 µM) 0, Cn1cc(-c2ccc(CNc3cc(-c4cnc5cc(OCCCN6CCCC6)ccn45)ncn3)cc2)cn1 (10 µM) 0, Cc1ccc(S(=O)(=O)Nc2ccccc2C=Nc2ccccc2NS(=O)(=O)c2ccc(C)cc2)cc1 (10 µM) 0, O=C(/C=C/c1ccc(O)c(O)c1)c1ccc(O[C@@H]2O[C@H](CO)[C@@H](O)[C@H](O)[C@H]2O)c(O)c1O [Marein] (10 µM) 0, O=C(NCCCNc1nc(Nc2cccc(NC(=O)N3CCCC3)c2)ncc1I)c1cccs1 (2.5 µM) 0, CN(CCNc1ccc2ncc(-c3ccc(C(N)=O)cc3)n2n1)C(=O)OC(C)(C)C (10 µM) 0, C=C(C)C(=O)Nc1cccc(-c2ncnc3[nH]cc(C(=O)OCC)c23)c1 (10 µM) 0, COc1ccc(C(=C2C(=O)Nc3ccccc32)c2ccc(OC)cc2)cc1 (10 µM) 0, CN1CCN(c2ccc(C(=O)Nc3cc(-c4cccc(NS(=O)(=O)c5ccccc5)c4)[nH]n3)cc2)CC1 [BPR1J-097 Hydrochloride] (2.5 µM) 0, C=CC(=O)Nc1cc2c(Nc3ccc(OCc4ccccn4)c(Cl)c3)ncnc2cc1OCCN1CCOCC1 (10 µM) 0, Cc1c(NC(=O)OC[C@@H]2COCCN2)cn2ncnc(Nc3ccc4c(cnn4Cc4cccc(F)c4)c3)c12 (10 µM) 0, CNc1nc(Nc2cnn(C3CCN(C4COC4)CC3F)c2Cl)ncc1C(F)(F)F (stereo not given) (10 µM) 0, O=C(NCCO)c1ccc2c(c1)nc(Nc1cccc(Cl)c1)c1ccncc12 [CK2 inhibitor 2] (10 µM) 0, N#CC(c1ccnc(NCCc2cccnc2)n1)c1nc2ccccc2s1 (stereo not given) (10 µM) 0, CCN(CC)S(=O)(=O)c1ccc(OC)c(N2CCN(C(=O)c3ccc(F)cc3C(F)(F)F)CC2)c1 (10 µM) 0, CO[C@H]1C[C@@H]2CC[C@@H](C)[C@@](O)(O2)C(=O)C(=O)N2CCCC[C@H]2C(=O)O[C@H]([C@H](C)C[C@@H]2CC[C@@H](O)[C@H](OC)C2)CC(=O)[C@H](C)/C=C(\C)[C@@H](O)[C@@H](OC)C(=O)[C@H](C)C[C@H](C)/C=C/C=C/C=C/1C [Rapamycin] (10 µM) 0, CN(C)CCN(Cc1ccc(Cl)cc1)c1ccccn1 [Chloropyramine hydrochloride] (10 µM) 0, O=C(Nc1ccc(F)cc1F)[C@H](NC(=S)Nc1cc(C(F)(F)F)cc(C(F)(F)F)c1)c1ccccc1 (2.5 µM) 0, Cc1ccc(Nc2cc(-c3cccc(N4C(=O)c5ccccc5C4=O)c3)ncn2)cc1NS(C)(=O)=O (10 µM) 0, CC(C)(C)c1ccc(S(=O)(=O)Nc2ccc(-n3ccnc3)cc2)cc1 (10 µM) 0, CCc1cc(O)c(F)cc1-c1ccc2c(-c3nc4c([nH]3)CN(C3CCN(C)CC3)CC4)n[nH]c2c1 [JAK-IN-5 (hydrochloride)] (2 µM) 0, CC1=C2C(=O)O[C@@H](c3ccoc3)[C@]2(C)CCC1 [Fraxinellone] (10 µM) 0, COc1cc(C(N)=O)nc(-c2cccc(C#C[C@]3(O)CCN(C)C3=O)c2)c1 (10 µM) 0, COc1ncc(-c2nc(N3CCOCC3)nc3c(CN4CCC(C(C)(C)O)CC4)cc(F)cc23)cc1NS(C)(=O)=O [Linperlisib] (10 µM) 0, Fc1ccc(-c2nc(-c3ccccc3F)[nH]c2-c2ccncc2)cc1 (2.5 µM) 0, CC(C)=CC[C@H](O)C1=CC(=O)c2c(O)ccc(O)c2C1=O [(-)-Alkannin] (2.5 µM) 0, CC(C)c1cnc(-c2cc(Cl)ccc2F)cc1Nc1ccncc1C(=O)NC(CO)CO (2.5 µM) 0, Cn1cnc(-c2cc3nccc(Oc4ccc(NC(=S)NC(=O)Cc5ccccc5)cc4F)c3s2)c1 [MGCD-265 analog] (10 µM) 0, COC1(c2sc3c(N4CCOCC4)nc(-c4cnc(N)nc4)nc3c2C)COC1 (2.5 µM) 0, Cc1cc(NC(=O)c2cccc(NC(=O)/C=C/CN(C)C)c2)ccc1Nc1nccc(-c2cccnc2)n1 (10 µM) 0, O=C(/C=C/c1ccc(O)c(O)c1)OC1CC(OC(=O)/C=C/c2ccc(O)c(O)c2)(C(=O)O)CC(O)C1O (stereo not given) [1,3-Dicaffeoylquinic acid] (10 µM) 0, COc1ccc2c(c1O)OC(C)(C)c1c-2ccc2c1C(=O)N(c1ccc(C(=O)c3ccccc3)cc1)C2=O [Ampkinone] (10 µM) 0, CNC(=O)Nc1ccc(-c2cc(-c3ccnc(Nc4ccc(C)c(S(=O)(=O)N(C)C)c4)n3)ccn2)cc1 [hSMG-1 inhibitor 11e] (2.5 µM) 0
